Results deposited as PubChem BioAssay AID686938 (Drosophila RNAi Screening Center, 2013)

Aim: 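Knock-downs reducing store-operated calcium influx in Drosophila cells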 (primary screen)
Cell system: Drosophila S2R+ cells
Reagent: long dsRNA against Drosophila genes, about 0.25 µg dsRNA per well, roughly 10,000 cells
Timing: 5 days of knock-down before the calcium assay
Treatment: thapsigargin (SERCA pump blocker) to empty calcium stores; entry signal taken 4 min after adding it
Read-out: 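Per-well fluo-4 fluorescence in two replicates, unnormalised, measured in resting cells and 4 min after store depletion by the SERCA blocker thapsigargin; ratio of the two present in few wells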
Direction: calcium entry signal: higher = stronger calcium signal after store depletion; resting calcium signal: higher = higher resting calcium signal
Rule for the call: 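Called when the plate z-score of the entry-to-rest ratio, mean of duplicates, falls below −3; wells with low overall dye signal (Fmax z below −2) or more than five off-targets excluded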
Meaning of the calls: active = strongly reduced calcium entry; inactive = no strong reduction
The deposit covers about 23,000 reagents; below is a random part of those with a known target gene and a result. In the full data, 75 (0.33%) got an active call. 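Raw plate signals without normalisation; calls rest on plate z-scores that were not deposited; ratio present for only 364 wells.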 A number with no mark means an inactive call. A plus sign joins genes that one reagent is predicted to hit. The record does not give: the dose of the treatment.

The opening 4 entries, ahead of the listing:
| target | amplicon | calcium entry signal, replicate 1 (fluorescence units) | calcium entry signal, replicate 2 (fluorescence units) | resting calcium signal, replicate 1 (fluorescence units) | resting calcium signal, replicate 2 (fluorescence units) |
| --- | --- | --- | --- | --- | --- |
| CG14180 (retired record) (GeneID 39101) | DRSC10179 | 1.66e7 | 2.26e7 | 1.11e7 | 1.42e7 |
| term (GeneID 47208) | DRSC21730 | 2.15e7 | 2.97e7 | 1.27e7 | 1.37e7 |
| CG15208 (GeneID 32022) | DRSC19654 | 2.47e7 | 3.00e7 | 1.13e7 | 1.39e7 |
| mub (GeneID 40436) | DRSC11896 | 3.71e7 | 4.85e7 | 1.72e7 | 3.11e7 |

The list itself, repeating the preview:
| target | amplicon | calcium entry signal, replicate 1 (fluorescence units) | calcium entry signal, replicate 2 (fluorescence units) | resting calcium signal, replicate 1 (fluorescence units) | resting calcium signal, replicate 2 (fluorescence units) |
| --- | --- | --- | --- | --- | --- |
| CG14180 (retired record) (GeneID 39101) | DRSC10179 | 1.66e7 | 2.26e7 | 1.11e7 | 1.42e7 |
| term (GeneID 47208) | DRSC21730 | 2.15e7 | 2.97e7 | 1.27e7 | 1.37e7 |
| CG15208 (GeneID 32022) | DRSC19654 | 2.47e7 | 3.00e7 | 1.13e7 | 1.39e7 |
| mub (GeneID 40436) | DRSC11896 | 3.71e7 | 4.85e7 | 1.72e7 | 3.11e7 |
| Ankle2 (GeneID 32732) | DRSC20105 | 2.64e7 | 2.90e7 | 1.24e7 | 1.34e7 |
| Ankle2 (GeneID 32732) | DRSC20106 | 2.26e7 | 2.60e7 | 1.25e7 | 1.23e7 |
| CG15695 (GeneID 42468) | DRSC15117 | 4.34e7 | 4.68e7 | 5.96e7 | 2.07e7 |
| lncRNA:CR30055 (GeneID 10178803) | DRSC22439 | 3.24e7 | 3.67e7 | 1.77e7 | 1.57e7 |
| CG6290 (GeneID 32827) | DRSC19979 | 5.19e7 | 5.15e7 | 2.40e7 | 2.16e7 |
| CG34034 (GeneID 3885584) | DRSC13506 | 3.26e7 | 2.29e7 | 1.63e7 | 1.08e7 |
| CG15385 (GeneID 33396) | DRSC00399 | 3.62e7 | 4.13e7 | 1.71e7 | 1.79e7 |
| osi (GeneID 50459) | DRSC02931 | 4.08e7 | 3.93e7 | 1.84e7 | 1.82e7 |
| Wnt2 (GeneID 35975) | DRSC05160 | 2.81e7 | 3.70e7 | 1.39e7 | 1.72e7 |
| Wnt2 (GeneID 35975) | DRSC07574 | 3.96e7 | 4.08e7 | 1.96e7 | 1.91e7 |
| Sgs1 (GeneID 33701) | DRSC00787 | 2.88e7 | 3.50e7 | 1.43e7 | 1.58e7 |
| Sgs1 (GeneID 33701) | DRSC00848 | 5.06e7 | 3.60e7 | 2.53e7 | 1.66e7 |
| Sp1 (GeneID 31913) | DRSC17622 | 3.82e7 | 3.90e7 | 1.82e7 | 1.72e7 |
| Sp1 (GeneID 31913) | DRSC18717 | 3.86e7 | 4.82e7 | 1.94e7 | 2.23e7 |
| Vps28 (GeneID 47408) | DRSC06168 | 3.49e7 | 4.50e7 | 2.14e7 | 2.31e7 |
| Abp1 (GeneID 39520) | DRSC09693 | 3.16e7 | 4.69e7 | 1.74e7 | 2.14e7 |
| NijB (GeneID 40057) | DRSC09850 | 4.52e7 | 3.10e7 | 2.22e7 | 1.55e7 |
| Tsp39D (GeneID 35405) | DRSC03099 | 4.00e7 | 5.46e7 | 1.82e7 | 2.36e7 |
| AttC (GeneID 36484) | DRSC06886 | 3.16e7 | 3.45e7 | 1.63e7 | 1.59e7 |
| Gle1 (GeneID 35849) | DRSC06485 | 4.39e7 | 4.81e7 | 1.77e7 | 2.11e7 |
| CG6576 (GeneID 39003) | DRSC10663 | 3.37e7 | 4.49e7 | 1.62e7 | 2.06e7 |
| CG32391 (GeneID 318007) | DRSC08865 | 3.56e7 | 6.95e7 | 1.70e7 | 2.96e7 |
| CG7530 (GeneID 41784) | DRSC16255 | 2.81e7 | 3.55e7 | 1.36e7 | 1.72e7 |
| CAH16 (GeneID 50101) | DRSC15371 | 3.24e7 | 6.25e7 | 1.78e7 | 2.36e7 |
| Pura (GeneID 2768948) | DRSC08891 | 4.47e7 | 5.42e7 | 2.35e7 | 2.43e7 |
| Pura (GeneID 2768948) | DRSC10862 | 3.43e7 | 4.51e7 | 1.52e7 | 2.12e7 |
| Pura (GeneID 2768948) | DRSC10864 | 3.56e7 | 4.89e7 | 1.56e7 | 2.41e7 |
| Pura (GeneID 2768948) | DRSC10865 | 3.40e7 | 5.10e7 | 1.71e7 | 2.37e7 |
| Pura (GeneID 2768948) | DRSC10866 | 3.52e7 | 5.52e7 | 1.64e7 | 2.36e7 |
| Dpy-30L1 (GeneID 34480) | DRSC02959 | 2.13e7 | 3.65e7 | 1.02e7 | 1.51e7 |
| CG31751 (GeneID 35118) | DRSC02464 | 2.58e7 | 4.16e7 | 1.31e7 | 1.71e7 |
| CG31751 (GeneID 35118) | DRSC02465 | 2.69e7 | 4.18e7 | 1.43e7 | 1.72e7 |
| oaf (GeneID 33435) | DRSC00831 | 3.30e7 | 4.54e7 | 1.63e7 | 1.86e7 |
| Gr64b + Gr64c | DRSC08444 | 3.55e7 | 4.10e7 | 1.81e7 | 1.70e7 |
| Gr64b + Gr64c | DRSC08445 | 4.51e7 | 4.44e7 | 2.07e7 | 1.94e7 |
| CG5347 (GeneID 32403) | DRSC19942 | 3.52e7 | 3.03e7 | 1.86e7 | 1.42e7 |
